Laboratory results: PubChem BioAssay AID504808 (Drosophila RNAi Screening Center, 2011)
The deposit covers about 21,000 reagents; this is an unselected part of those that have a named target and a result. Over the whole deposit, 18 (0.084%) are marked active. 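Raw counts without plate normalisation, one of two replicates; the ratio scores behind the calls were not deposited.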 The numbers tell different reagents against one gene apart. Reagent sequences are not shown. Not stated in the record: the amount of reagent, the time to read-out.

Aim: 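Chromatin factors that keep E2F targets switched off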 (primary screen)
Cells: Drosophila S2 cells
Knock-down reagent: long dsRNA against Drosophila genes
Measurement: 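Firefly luciferase driven by E2F sites, normalised to Renilla luciferase on the same minimal promoter, measured by plate reader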
Direction: E2F firefly: higher = more E2F reporter activity; Renilla normaliser: higher = more normaliser reporter signal
Call rule: 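a knock-down counted as active when the firefly/Renilla E2F signal rose above 50%, a threshold chosen arbitrarily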

The opening 2 records as a preview:
side-III #1 → E2F firefly, rep 1: 1.53e5; Renilla normaliser, rep 1: 6748; activity call: inactive
side-III #2 → E2F firefly, rep 1: 92875; Renilla normaliser, rep 1: 5760; activity call: inactive

The list itself, repeating the preview:
side-III #1 → E2F firefly, rep 1: 1.53e5; Renilla normaliser, rep 1: 6748; activity call: inactive
side-III #2 → E2F firefly, rep 1: 92875; Renilla normaliser, rep 1: 5760; activity call: inactive
side-III #3 → E2F firefly, rep 1: 1.29e5; Renilla normaliser, rep 1: 7979; activity call: inactive
CG9672 → E2F firefly, rep 1: 1.76e5; Renilla normaliser, rep 1: 6221; activity call: inactive
CG8187 → E2F firefly, rep 1: 71432; Renilla normaliser, rep 1: 3471; activity call: inactive
Rgk1 (retired record) #1 → E2F firefly, rep 1: 1.42e5; Renilla normaliser, rep 1: 4994; activity call: inactive
Rgk1 (retired record) #2 → E2F firefly, rep 1: 1.19e5; Renilla normaliser, rep 1: 3797; activity call: inactive
Dtwd2 → E2F firefly, rep 1: 1.22e5; Renilla normaliser, rep 1: 5875; activity call: inactive
U2A → E2F firefly, rep 1: 1.03e5; Renilla normaliser, rep 1: 5035; activity call: inactive
CG17760 → E2F firefly, rep 1: 1.04e5; Renilla normaliser, rep 1: 4070; activity call: inactive
Asx → E2F firefly, rep 1: 1.06e5; Renilla normaliser, rep 1: 3939; activity call: inactive
CG10343 → E2F firefly, rep 1: 1.09e5; Renilla normaliser, rep 1: 4433; activity call: inactive
CG32243 → E2F firefly, rep 1: 1.43e5; Renilla normaliser, rep 1: 4535; activity call: inactive
Mzt1 → E2F firefly, rep 1: 1.35e5; Renilla normaliser, rep 1: 3979; activity call: inactive
CG16743 → E2F firefly, rep 1: 1.27e5; Renilla normaliser, rep 1: 4590; activity call: inactive
mRpL1 → E2F firefly, rep 1: 1.25e5; Renilla normaliser, rep 1: 5518; activity call: inactive
CG31689 → E2F firefly, rep 1: 1.65e5; Renilla normaliser, rep 1: 6492; activity call: inactive
CG10347 → E2F firefly, rep 1: 1.29e5; Renilla normaliser, rep 1: 6177; activity call: inactive
mRpL39 → E2F firefly, rep 1: 1.67e5; Renilla normaliser, rep 1: 8359; activity call: inactive
